No constants are given. Whether binding was seen depends on the method and setting. In cells and extracts the contact can be indirect. Some entries that bind do so weakly or less than the wild type.
Target: CHD4 (mouse (endogenous in choroid plexus)) (UniProt Q6PDQ2)
Experiment: co-IP; endogenous proteins; choroid plexus tissue (pooled P0 pups and adults) homogenized in NET buffer (150 mM NaCl, 10 mM Tris 8.0, 5 mM EDTA, 10% glycerol, 2% Triton X-100); precleared lysate incubated with CHD4 antibody overnight at 4 °C, Protein G agarose; immunoblot

Protein sequences, listed by entry. Tags and fused reporters are not part of them.
UniProt Q6PDQ2: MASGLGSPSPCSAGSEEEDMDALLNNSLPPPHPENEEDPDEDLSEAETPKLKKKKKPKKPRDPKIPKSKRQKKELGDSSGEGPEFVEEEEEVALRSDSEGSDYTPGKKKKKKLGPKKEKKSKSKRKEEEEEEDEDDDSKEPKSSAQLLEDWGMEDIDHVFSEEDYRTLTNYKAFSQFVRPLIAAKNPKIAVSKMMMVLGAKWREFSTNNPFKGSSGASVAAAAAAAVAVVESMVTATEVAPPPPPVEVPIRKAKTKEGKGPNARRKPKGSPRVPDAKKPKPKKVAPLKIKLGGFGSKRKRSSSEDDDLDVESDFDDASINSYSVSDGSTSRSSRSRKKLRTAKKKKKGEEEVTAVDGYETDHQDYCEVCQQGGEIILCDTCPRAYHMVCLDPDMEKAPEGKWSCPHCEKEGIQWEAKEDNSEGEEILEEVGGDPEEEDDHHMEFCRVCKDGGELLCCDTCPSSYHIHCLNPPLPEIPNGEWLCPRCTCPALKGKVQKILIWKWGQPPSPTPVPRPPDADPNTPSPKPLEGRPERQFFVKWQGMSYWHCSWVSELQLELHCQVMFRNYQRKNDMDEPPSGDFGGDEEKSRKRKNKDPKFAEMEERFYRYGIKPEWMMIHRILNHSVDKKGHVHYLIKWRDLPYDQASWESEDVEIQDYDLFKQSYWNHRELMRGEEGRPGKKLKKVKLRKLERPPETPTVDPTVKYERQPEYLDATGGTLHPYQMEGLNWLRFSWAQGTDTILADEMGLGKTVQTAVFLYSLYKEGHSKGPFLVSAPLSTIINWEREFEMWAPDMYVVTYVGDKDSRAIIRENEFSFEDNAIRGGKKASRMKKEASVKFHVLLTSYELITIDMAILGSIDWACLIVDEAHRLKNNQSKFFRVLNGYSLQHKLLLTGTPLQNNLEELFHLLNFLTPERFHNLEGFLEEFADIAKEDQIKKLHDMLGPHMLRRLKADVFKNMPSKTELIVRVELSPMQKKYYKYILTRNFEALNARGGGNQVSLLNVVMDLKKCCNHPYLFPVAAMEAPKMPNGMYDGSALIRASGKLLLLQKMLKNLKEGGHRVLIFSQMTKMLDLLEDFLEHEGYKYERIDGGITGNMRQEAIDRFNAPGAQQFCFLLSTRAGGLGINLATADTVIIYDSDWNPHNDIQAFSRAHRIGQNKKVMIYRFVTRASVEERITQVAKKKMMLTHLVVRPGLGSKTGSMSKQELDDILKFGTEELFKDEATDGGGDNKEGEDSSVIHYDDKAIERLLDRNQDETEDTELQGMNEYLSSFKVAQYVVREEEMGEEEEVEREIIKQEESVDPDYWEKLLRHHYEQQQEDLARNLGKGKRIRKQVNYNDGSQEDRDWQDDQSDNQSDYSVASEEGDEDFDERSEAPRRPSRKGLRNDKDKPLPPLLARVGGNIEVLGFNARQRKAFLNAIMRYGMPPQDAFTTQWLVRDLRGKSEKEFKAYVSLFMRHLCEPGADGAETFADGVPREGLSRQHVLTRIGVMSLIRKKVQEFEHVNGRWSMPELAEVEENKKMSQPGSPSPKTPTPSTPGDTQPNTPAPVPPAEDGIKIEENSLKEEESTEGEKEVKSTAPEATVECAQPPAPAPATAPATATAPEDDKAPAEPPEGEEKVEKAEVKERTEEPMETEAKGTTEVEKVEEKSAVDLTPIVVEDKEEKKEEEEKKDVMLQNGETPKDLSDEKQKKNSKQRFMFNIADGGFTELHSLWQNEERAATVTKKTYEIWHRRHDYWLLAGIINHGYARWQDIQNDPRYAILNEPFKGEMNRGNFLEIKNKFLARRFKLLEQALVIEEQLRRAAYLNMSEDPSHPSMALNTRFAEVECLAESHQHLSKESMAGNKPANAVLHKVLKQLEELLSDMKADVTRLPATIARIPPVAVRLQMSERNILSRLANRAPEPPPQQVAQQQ
UniProt O09106: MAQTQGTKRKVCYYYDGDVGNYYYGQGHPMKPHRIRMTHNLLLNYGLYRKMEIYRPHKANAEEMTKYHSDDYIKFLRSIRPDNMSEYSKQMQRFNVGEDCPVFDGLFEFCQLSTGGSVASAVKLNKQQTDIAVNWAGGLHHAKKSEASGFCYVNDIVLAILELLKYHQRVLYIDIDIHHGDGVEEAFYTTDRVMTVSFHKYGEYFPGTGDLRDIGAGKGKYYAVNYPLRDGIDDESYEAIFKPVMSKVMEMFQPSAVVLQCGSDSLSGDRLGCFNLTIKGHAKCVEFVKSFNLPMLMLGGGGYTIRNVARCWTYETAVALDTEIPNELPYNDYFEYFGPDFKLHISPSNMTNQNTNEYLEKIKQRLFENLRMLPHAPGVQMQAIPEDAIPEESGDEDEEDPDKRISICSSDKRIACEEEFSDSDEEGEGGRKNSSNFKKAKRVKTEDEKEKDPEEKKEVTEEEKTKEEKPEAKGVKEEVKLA
UniProt P70288: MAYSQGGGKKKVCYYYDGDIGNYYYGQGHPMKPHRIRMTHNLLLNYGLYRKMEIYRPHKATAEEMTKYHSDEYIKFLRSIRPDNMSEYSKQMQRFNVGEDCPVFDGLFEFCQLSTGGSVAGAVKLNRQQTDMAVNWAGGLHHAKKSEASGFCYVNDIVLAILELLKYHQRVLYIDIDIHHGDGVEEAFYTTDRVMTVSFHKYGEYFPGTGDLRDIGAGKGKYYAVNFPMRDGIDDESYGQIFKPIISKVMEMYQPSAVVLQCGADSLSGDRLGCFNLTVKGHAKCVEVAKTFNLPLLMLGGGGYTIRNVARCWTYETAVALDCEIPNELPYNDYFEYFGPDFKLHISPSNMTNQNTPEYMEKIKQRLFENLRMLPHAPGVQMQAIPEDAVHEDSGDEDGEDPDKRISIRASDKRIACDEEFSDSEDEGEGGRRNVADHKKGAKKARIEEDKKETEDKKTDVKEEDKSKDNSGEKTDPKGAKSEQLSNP

In the case of HDAC1 (from UniProt O09106 1-482), the binding is reported as “binds”.
For HDAC2 (from UniProt P70288 1-488), the binding was “binds”.

— publication PMC7815709
